Reference: paper PMC11947994
Results are given in words; binding and its absence hold for the method and conditions named. In cells and extracts the contact can be indirect. Some entries that bind do so weakly or less than the wild type.

The chains behind the UniProt entries cited, without tags or fusion partners.
UniProt P14618: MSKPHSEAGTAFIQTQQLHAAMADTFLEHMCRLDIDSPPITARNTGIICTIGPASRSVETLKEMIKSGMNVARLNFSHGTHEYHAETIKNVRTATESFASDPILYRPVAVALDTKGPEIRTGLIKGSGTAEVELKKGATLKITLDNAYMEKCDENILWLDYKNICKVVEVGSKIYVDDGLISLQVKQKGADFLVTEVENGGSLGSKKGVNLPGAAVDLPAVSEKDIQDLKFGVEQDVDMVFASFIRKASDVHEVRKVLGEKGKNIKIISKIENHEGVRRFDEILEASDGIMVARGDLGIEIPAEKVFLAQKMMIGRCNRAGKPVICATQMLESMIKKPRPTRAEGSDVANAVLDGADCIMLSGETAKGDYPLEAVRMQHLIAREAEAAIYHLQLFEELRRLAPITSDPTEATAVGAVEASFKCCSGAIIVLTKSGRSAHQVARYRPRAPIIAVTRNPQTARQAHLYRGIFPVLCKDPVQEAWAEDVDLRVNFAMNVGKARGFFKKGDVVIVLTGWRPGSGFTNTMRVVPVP
UniProt P17931: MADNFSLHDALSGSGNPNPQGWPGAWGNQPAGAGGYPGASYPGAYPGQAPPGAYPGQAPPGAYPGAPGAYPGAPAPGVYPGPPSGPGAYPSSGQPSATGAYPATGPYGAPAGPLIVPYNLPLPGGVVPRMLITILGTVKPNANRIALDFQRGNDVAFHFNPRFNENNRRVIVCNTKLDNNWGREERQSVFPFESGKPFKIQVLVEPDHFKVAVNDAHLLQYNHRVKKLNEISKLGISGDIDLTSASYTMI
UniProt P19474: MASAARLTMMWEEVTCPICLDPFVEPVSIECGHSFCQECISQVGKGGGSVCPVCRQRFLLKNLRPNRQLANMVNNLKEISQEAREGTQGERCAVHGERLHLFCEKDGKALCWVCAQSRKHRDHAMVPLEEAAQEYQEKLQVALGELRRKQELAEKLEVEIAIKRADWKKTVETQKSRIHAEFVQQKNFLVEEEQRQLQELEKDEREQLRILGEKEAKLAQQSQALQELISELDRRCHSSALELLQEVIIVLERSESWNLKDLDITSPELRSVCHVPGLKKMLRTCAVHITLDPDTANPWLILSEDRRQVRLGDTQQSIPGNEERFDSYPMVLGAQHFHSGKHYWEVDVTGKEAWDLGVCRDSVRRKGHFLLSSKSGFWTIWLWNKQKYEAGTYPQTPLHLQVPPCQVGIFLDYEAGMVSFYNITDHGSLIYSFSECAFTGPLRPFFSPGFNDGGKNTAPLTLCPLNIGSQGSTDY

Key:
His-PKM2 = His-PKM2 (UniProt P14618); assay: co-IP; HK-2 cells transfected with epitope-tagged plasmids; lysates immunoprecipitated with tag antibodies (Flag, Myc, His), protein A/G beads, immunoblot
Flag-Lgals3 [1] = target: Flag-Lgals3 (UniProt P17931); assay: co-IP; 293T cells transfected with epitope-tagged plasmids; lysates immunoprecipitated with tag antibodies, protein A/G beads, immunoblot
Flag-Lgals3 [2] = target: Flag-Lgals3 (UniProt P17931); assay: co-IP; HK-2 cells transfected with epitope-tagged plasmids; lysates immunoprecipitated with tag antibodies (Flag, Myc, His), protein A/G beads, immunoblot
[3] = target: Lgals3 (endogenous, HK-2 cells) (human (endogenous in HK-2)) (UniProt P17931); assay: co-IP; lysates of HK-2 cells immunoprecipitated with Lgals3 or PKM2 antibodies, immunoblot; endogenous proteins

**Q.** How did the binding (His-PKM2) turn out when “Myc-Trim21 (from UniProt P19474 1-475) (enzyme)” was run?
**A.** binds

**Q.** For “His-PKM2 (from UniProt P14618 1-531) (enzyme)”, which binding (Flag-Lgals3 [1]) is on record?
**A.** binds

**Q.** What about the binding (Flag-Lgals3 [2]) of the same substance?
**A.** binds

**Q.** For “PKM2 (endogenous, HK-2 cells) (from UniProt P14618 1-531) (enzyme)”, which binding [3] is on record?
**A.** binds
